# No constants are given. Whether binding was seen depends on the method and setting. In cells and extracts the contact can be indirect. Some entries that bind do so weakly or less than the wild type.
# By UniProt entry, the sequences of proteins in these tests, tags left out.
# UniProt O95832: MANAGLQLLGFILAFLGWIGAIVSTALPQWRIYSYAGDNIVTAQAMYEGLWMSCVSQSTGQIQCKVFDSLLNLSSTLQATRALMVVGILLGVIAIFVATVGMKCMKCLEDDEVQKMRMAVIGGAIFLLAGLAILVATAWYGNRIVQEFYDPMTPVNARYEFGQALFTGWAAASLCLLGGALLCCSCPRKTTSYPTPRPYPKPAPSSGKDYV
# UniProt Q07157: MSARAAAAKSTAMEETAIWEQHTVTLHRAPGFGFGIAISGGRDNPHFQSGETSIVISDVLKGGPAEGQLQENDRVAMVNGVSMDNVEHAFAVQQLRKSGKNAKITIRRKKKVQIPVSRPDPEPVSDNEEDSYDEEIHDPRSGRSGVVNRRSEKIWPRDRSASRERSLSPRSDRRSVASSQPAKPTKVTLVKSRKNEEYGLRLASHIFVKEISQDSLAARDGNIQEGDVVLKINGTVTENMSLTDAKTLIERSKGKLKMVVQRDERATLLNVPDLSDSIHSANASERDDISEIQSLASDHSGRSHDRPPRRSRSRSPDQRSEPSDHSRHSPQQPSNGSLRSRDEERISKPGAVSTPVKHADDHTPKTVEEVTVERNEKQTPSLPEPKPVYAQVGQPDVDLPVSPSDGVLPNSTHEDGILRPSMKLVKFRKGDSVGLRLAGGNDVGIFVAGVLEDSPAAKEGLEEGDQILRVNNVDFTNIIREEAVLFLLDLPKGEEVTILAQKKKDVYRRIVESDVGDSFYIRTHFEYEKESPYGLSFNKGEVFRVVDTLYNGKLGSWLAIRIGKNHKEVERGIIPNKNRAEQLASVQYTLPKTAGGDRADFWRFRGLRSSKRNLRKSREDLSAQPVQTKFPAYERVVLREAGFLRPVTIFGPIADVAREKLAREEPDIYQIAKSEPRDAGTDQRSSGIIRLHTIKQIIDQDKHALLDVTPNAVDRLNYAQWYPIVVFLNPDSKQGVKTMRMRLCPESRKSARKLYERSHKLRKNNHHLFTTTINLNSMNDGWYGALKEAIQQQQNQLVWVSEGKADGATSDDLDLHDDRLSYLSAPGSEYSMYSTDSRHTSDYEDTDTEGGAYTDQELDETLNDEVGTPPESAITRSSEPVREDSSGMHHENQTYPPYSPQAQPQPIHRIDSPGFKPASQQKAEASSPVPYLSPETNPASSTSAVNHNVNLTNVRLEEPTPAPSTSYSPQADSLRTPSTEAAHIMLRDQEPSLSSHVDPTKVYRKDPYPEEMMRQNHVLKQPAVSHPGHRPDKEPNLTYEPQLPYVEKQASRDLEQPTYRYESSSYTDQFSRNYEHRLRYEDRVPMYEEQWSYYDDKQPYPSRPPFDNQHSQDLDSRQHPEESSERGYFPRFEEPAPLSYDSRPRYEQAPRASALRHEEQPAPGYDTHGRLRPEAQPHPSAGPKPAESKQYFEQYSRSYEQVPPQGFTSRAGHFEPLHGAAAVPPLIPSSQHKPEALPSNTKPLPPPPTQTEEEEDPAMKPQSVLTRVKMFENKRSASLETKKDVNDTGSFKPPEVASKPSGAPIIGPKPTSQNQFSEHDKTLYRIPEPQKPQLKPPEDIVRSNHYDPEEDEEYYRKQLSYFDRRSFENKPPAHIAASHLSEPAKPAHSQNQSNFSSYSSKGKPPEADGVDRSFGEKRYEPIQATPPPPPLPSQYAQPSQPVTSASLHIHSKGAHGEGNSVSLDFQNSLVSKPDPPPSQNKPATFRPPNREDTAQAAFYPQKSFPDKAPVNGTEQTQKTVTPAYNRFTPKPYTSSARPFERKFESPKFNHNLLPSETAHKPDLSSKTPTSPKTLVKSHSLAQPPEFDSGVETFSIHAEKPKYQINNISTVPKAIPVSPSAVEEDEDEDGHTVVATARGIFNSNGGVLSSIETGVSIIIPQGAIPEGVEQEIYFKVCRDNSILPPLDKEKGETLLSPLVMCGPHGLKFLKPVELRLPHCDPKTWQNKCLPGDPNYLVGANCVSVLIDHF
# How the values were obtained:
# [1] = target: claudin-1 (human (endogenous in Caco-2; cell line not named for the co-IP)) (UniProt O95832); assay: co-IP; endogenous proteins; pre-cleared cell extracts (1 mg protein) in 50 mM Tris-HCl pH 7.4, 150 mM NaCl, 1 mM EDTA, 1% NP-40; IP with antibodies to E-cadherin, claudin-1 or occludin overnight at 4°C, Protein G beads; control IP with IgG/unrelated serum; Western blot
# [2] = target: T1, occludin (human (endogenous in Caco-2; cell line not named for the co-IP)) (UniProt Q16625); assay: as above
# T1 sequence: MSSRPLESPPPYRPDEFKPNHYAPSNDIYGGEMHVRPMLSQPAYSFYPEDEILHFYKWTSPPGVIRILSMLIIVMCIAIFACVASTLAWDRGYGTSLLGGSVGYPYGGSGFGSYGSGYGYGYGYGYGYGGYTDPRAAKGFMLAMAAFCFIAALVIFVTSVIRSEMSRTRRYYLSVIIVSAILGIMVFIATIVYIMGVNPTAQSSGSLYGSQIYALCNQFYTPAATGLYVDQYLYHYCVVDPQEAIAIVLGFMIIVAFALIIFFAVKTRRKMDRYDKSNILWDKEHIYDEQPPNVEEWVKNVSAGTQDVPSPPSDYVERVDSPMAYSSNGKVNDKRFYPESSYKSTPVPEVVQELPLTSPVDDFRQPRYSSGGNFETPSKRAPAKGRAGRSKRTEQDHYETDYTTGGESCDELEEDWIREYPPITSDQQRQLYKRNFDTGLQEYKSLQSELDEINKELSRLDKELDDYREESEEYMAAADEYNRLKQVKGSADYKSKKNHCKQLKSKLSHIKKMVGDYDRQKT
Substance,binding [1],binding [2]
arpin (from UniProt Q7Z6K5 1-226),binds,binds
zonula occludens 1 (ZO-1) (from UniProt Q07157 1-1748),–,binds

# Reference: publication PMC8128147
